Assay results from PMC12325954.
No constants are given. Whether binding was seen depends on the method and setting. Binding can be weak; no strength is given.

How the values were obtained:
[1] = target: A. franciscana ATP synthase b-subunit (A. franciscana (endogenous in A. franciscana mitochondria)); assay: cryo-EM structure; single-particle cryo-EM of the ATP synthase monomer purified from A. franciscana mitochondria in DDM at pH 8.0; rotational states 1, 2 and 3a; local refinement of F1, FO and peripheral stalk; both purified
[2] = target: A. franciscana ATP synthase c-subunit (c8-ring) (A. franciscana (endogenous in A. franciscana mitochondria)); assay: as above
[3] = target: A. franciscana ATP synthase b-subunit (A. franciscana (endogenous in A. franciscana mitochondria)); assay: cryo-EM structure; single-particle cryo-EM of the ATP synthase monomer purified from A. franciscana mitochondria in DDM at pH 7.0; rotational states 1, 2 and 3a; local refinement of F1 and FO; both purified
[4] = target: A. franciscana ATP synthase c-subunit (c8-ring) (A. franciscana (endogenous in A. franciscana mitochondria)); assay: as above

Measured: binding

B1: A. franciscana ATP synthase a-subunit (subunit 6 or ATP6) (protein, UniProt Q37708 1-219)
chain: MMASLFSVFDPTSSFLSNWLSMLIPLLFMVMSFWLIPSRPQFLAKSVLMGLNREMSLLMGPASFGANILVIALFLFILFNNFIGLFPYIFTATSHLAVTLSLAVPLWISFILYTWIKETTNALAHLVPLGTPAPLMPFMVLMEIISNMIRPITLSVRLAANMIAGHLLLTLLGAQGTLENLYVTSIVVFSQIILLMLEFSVAIIQSYVFMTLMTLYASE
binds: all assays above
